No constants are given. Whether binding was seen depends on the method and setting. Binding seen in cells or lysates may run through a third protein. These calls come from enrichment with a bait or labelling near it, and not all partners need be listed.
Target: FGR (human (endogenous in LoVo)) (UniProt P09769)
Assay: affinity purification with mass spectrometry; FGR co-immunoprecipitation paired with mass spectrometry; cells not named for this experiment

Protein sequences, listed by entry. Tags and fused reporters are not part of them.
UniProt P08047: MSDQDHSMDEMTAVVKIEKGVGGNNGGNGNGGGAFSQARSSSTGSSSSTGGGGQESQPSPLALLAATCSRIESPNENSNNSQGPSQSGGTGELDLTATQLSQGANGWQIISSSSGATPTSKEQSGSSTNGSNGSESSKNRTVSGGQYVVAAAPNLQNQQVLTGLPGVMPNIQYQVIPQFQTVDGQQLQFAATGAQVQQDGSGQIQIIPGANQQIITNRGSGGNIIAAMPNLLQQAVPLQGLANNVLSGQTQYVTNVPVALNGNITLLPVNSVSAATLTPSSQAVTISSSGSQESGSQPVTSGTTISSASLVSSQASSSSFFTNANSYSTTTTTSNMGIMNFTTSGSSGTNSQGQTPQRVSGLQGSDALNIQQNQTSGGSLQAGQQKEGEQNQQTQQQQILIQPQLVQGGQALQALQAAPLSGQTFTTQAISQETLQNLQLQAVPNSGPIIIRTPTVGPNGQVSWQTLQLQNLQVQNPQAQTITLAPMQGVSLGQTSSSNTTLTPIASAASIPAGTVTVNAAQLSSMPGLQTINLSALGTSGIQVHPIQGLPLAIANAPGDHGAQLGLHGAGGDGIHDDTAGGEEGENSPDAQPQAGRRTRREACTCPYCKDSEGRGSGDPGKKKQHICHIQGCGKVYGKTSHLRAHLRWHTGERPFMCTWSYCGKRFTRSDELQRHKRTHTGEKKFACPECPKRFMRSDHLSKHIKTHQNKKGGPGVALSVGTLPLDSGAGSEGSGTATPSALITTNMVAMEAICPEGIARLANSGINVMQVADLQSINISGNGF

- binding: binds
Substance: SP1 (from UniProt P08047 1-785)

Reference: article PMC11718245
